Consider 1 substance from patent publication US20130017226A1.

By UniProt entry, the sequences of proteins in these tests, tags left out. Where a name states a change or a piece, a line headed by the entry shows the natural chain unless it says otherwise. Residues count along the entry.
UniProt O43508, residues 94-249: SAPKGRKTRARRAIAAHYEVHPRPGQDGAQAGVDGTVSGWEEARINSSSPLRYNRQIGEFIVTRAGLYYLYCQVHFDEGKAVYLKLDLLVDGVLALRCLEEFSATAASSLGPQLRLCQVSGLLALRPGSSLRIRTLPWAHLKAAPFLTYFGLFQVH
UniProt Q9NP84: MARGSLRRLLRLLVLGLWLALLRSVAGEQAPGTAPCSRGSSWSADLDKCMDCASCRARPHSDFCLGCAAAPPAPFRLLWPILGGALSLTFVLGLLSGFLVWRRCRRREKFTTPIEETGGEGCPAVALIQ

No constants are given. Whether binding was seen depends on the method and setting. Some results given as binding are weak or reduced against the parent protein; the word gives no strength.

Assay [1] concerns the target TWEAK (UniProt O43508). The assay is described as follows: ELISA, ligand coated on plate. On the technique in general: In an ELISA, binding on a coated surface is turned into a signal by an enzyme label.
The target of assay [2] is TWEAK (UniProt O43508). The assay is described as follows: binding affinity test (ELISA, FIG. 10).

With “TWEAKR-Fc (from UniProt Q9NP84 28-76) (Fc fusion)”, the binding result in the assay with TWEAK [1] and with TWEAK [2] was “binds” in each case.
